Out of some 320,000 compounds screened, about 22,000 (6.9%) were called active. The shares of active, inactive and inconclusive entries below differ from those in the screen. Calls follow the shape of the dose curve; as a rule, active = well fitted inhibition curve with a large enough effect; inconclusive = small, poorly fitted or top-dose-only effect, or another doubt; inactive = no such curve, though single readings can be large or run the other way. Where the call is inconclusive, the potency comes from a doubtful curve fit.
Assay: Primary qHTS for delayed death inhibitors of the malarial parasite plastid, 96 hour incubation
Details: P. falciparum luciferase reporter growth; series mostly up to 28.7 µM
Summary of the method: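 Erythrocytes infected with luciferase-expressing P. falciparum were dispensed at 2% hematocrit and 0.05% parasitemia (final), then incubated with compounds 96 hours at 37 C in 5% CO2. Luminescence after detection reagent addition reported growth.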
For CN(C)C1C(=O)C(C(N)=O)=C(O)C2(O)C(=O)C3=C(O)c4c(O)cccc4C(C)(O)C3CC12 (centres undefined), the Potency was active: 0.928 µM.
With CCC1(c2ccc(F)cc2)NC(=O)N(CC(=O)NCc2ccc(C)cc2)C1=O (centres undefined) the Potency was inconclusive: 13.1 µM [inhibitor, single point].
With Cc1c(C(=O)NCc2ccccc2Cl)oc2c1C(=O)CCC2 the Potency was inconclusive: 14.7 µM [inhibitor, partial curve, poor fit].
In the case of Cc1[nH]c2ccccc2c1-c1nc(-c2ccc(Cl)cc2)nnc1-c1ccccc1, the Potency is reported as “inactive”.
For O=C(O)c1nn(-c2ccccc2)ccc1=O, the Potency was “inactive”.
In the case of O=C(CSc1nc2[nH]ncc2c(=O)[nH]1)Nc1cccc([N+](=O)[O-])c1, the Potency is reported as “inactive”.
In the case of CC1CCCN(Cc2nc3c(c(=O)n(C)c(=O)n3C)n2CCCc2ccccc2)C1 (centres undefined), the Potency is reported as inconclusive: 8.28 µM [inhibitor, partial curve, poor fit].
With CCCCOC(=O)c1ccc(NC(=O)C(=O)NCc2ccncc2)cc1 the Potency was inconclusive: 10.4 µM [inhibitor, single point].
In the case of CC(C)CC(NC(=O)COc1ccccc1)C(=O)O (centres undefined), the Potency is reported as active: 11.7 µM.
With O=C(CSc1nc2ccc(NC(=O)CSc3nnnn3Cc3ccccc3)cc2s1)Nc1ccccc1 the Potency was inconclusive: 18.5 µM [inhibitor, single point].
In the case of CSC(=NC#N)N1CCN(c2c(C)cccc2C)CC1, the Potency is reported as inconclusive: 18.5 µM [inhibitor, single point].
With O=C(N/N=C/c1cccnc1)c1cc(-c2ccccc2Cl)nc2ccccc12 the Potency was inconclusive: 0.0586 µM [inhibitor, full curve, poor fit].
In the case of CN1C(=O)C(=O)/C(=C(/O)c2ccccc2)C1c1ccc(Br)cc1 (centres undefined), the Potency is reported as inconclusive: 10.4 µM [inhibitor, single point].
In the case of COc1ccccc1N(CC(=O)N/N=C(\C)c1ccc(F)cc1)S(=O)(=O)c1ccccc1, the Potency is reported as inconclusive: 14.7 µM [inhibitor, partial curve, poor fit].
With NC(=S)NNC(=O)c1ccccc1Cl the Potency was “inactive”.
With CSc1ccc(CN2CCN(C(=O)c3ccc([N+](=O)[O-])cc3)CC2)cc1 the Potency was “inactive”.
With COc1ccccc1/C=C/C(=O)NCC(=O)N/N=C/c1ccccc1 the Potency was “inactive”.
In the case of NS(=O)(=O)c1ccc(Cc2ncc(C(F)(F)F)cc2Cl)s1, the Potency is reported as inconclusive: 11.7 µM [inhibitor, single point].
For COc1ccc(NC(=O)C23CC4CC(C2)CC(n2cnc(Br)n2)(C4)C3)cc1Cl, the Potency was inconclusive: 4.65 µM [inhibitor, partial curve, poor fit].
With Brc1ccc(-c2csc3ncnc(-n4nnc5ccccc54)c23)cc1 the Potency was inconclusive: 14.7 µM [inhibitor, single point].
With O=C(CC(C(=O)O)c1ccc(Cl)cc1)c1ccc(Br)cc1 (centres undefined) the Potency was “inactive”.
In the case of CN(C)S(=O)(=O)c1cccc(C(=O)NCC(C)(C)CNC(=O)c2cccc(S(=O)(=O)N(C)C)c2)c1, the Potency is reported as “inactive”.
For CCCCN(CC)CCNC(=S)Nc1ccc2nc(N3CCN(C)CC3)cc(C)c2c1, the Potency was inconclusive: 1.65 µM [inhibitor, full curve, poor fit].
For COc1ccc(C(=O)C2CCN(C(=S)NCC3CCCO3)CC2)cc1 (centres undefined), the Potency was inconclusive: 18.5 µM [inhibitor, single point].
With CC(C)n1ncc2c(C(=O)Nc3ccc(S(C)(=O)=O)cc3)cc(C3CC3)nc21 the Potency was inconclusive: 13.1 µM [inhibitor, partial curve, poor fit].
For COc1ccc(NS(=O)(=O)c2cc(NC(=O)c3cccs3)ccc2N2CCCC2)cc1, the Potency was inconclusive: 18.5 µM [inhibitor, single point].
For COCc1cc(C2SCC(=O)Nc3c2c(=O)[nH]n3C(C)C)ccc1OC (centres undefined), the Potency was “inactive”.
For COc1ccc(OC)c(CNC(=O)Cc2c(C(=O)O)[nH]c3ccc(Cl)cc23)c1, the Potency was inconclusive: 18.5 µM [inhibitor, single point].
In the case of NC(=O)c1cccc(S(=O)(=O)N2CC(c3ccccc3)CC2=O)c1 (centres undefined), the Potency is reported as inconclusive: 18.5 µM [inhibitor, single point].
In the case of Cn1cnc([N+](=O)[O-])c1Sc1ccc(Br)cc1, the Potency is reported as inconclusive: 13.1 µM [inhibitor, single point].
With COc1ccc(/C=N/n2c(SC)nnc2-c2ccccc2)c(OC)c1OC the Potency was “inactive”.
For Cc1ccc(S(=O)(=O)Nc2c(NC3CCCCC3)c3ccccc3oc2=O)cc1, the Potency was “inactive”.
For CCCN=C1NC(=O)C(CC(=O)NCCc2ccccc2)S1 (centres undefined), the Potency was inconclusive: 11.7 µM [inhibitor, single point].
In the case of Cc1ccc(NC(=O)c2snnc2C)cc1Cl, the Potency is reported as inconclusive: 11.7 µM [inhibitor, single point].
In the case of Oc1ccc(N=Nc2n[nH]c(-c3ccc(Cl)cc3)n2)cc1, the Potency is reported as inconclusive: 0.294 µM [inhibitor, full curve, poor fit].
With CC(C)c1ccc(NC(=O)C2CC2c2ccccc2)cc1 (centres undefined) the Potency was inconclusive: 14.7 µM [inhibitor, single point].
In the case of O=C1NC(=Nc2ccccc2Cl)S/C1=C\c1cc([N+](=O)[O-])ccc1O, the Potency is reported as inconclusive: 18.5 µM [inhibitor, single point].
For CC(C)(C)C(=O)COC(=O)C1CC(=O)N(c2ccccc2)C1 (centres undefined), the Potency was “inactive”.
With Cc1ccc(-c2[nH]nc3c2C(c2ccsc2)C(C#N)=C(N)O3)cc1 (centres undefined) the Potency was inconclusive: 8.28 µM [inhibitor, partial curve, poor fit].
In the case of Cc1nn(Cc2ccccc2)c2c1C(c1ccncc1)C(C#N)=C(N)O2 (centres undefined), the Potency is reported as inconclusive: 4.15 µM [inhibitor, partial curve, poor fit].
In the case of Cc1ccc(S(=O)(=O)NCCC(=O)NNC(=O)c2ccccc2Cl)cc1C, the Potency is reported as “inactive”.
With CC1CCC(C(C)C)C(=O)/C1=C/c1ccc(N)cc1 (centres undefined) the Potency was “inactive”.
With Cc1ccc(-n2c(C)cc(=O)cc2C)c(C)c1 the Potency was “inactive”.
In the case of COc1cccc(C=Nc2cccc3c(=O)[nH][nH]c(=O)c23)c1O, the Potency is reported as inconclusive: 5.22 µM [inhibitor, partial curve].
With COc1cc(NC(=S)NCCC(c2ccccc2)c2ccccc2)c(OC)cc1Cl the Potency was inconclusive: 18.5 µM [inhibitor, single point].
In the case of COc1cccc(NCc2nnc(SCC(=O)N(C)C3CCS(=O)(=O)C3)n2C2CCCCC2)c1 (centres undefined), the Potency is reported as inconclusive: 18.5 µM [inhibitor, single point].
For CCNc1nc(SCCOc2ccc(Cl)cc2Cl)nc(N(C)C)n1, the Potency was inconclusive: 4.15 µM [inhibitor, partial curve, poor fit].
With Cc1oc(-c2ccccc2Cl)nc1CN1CCCCC1CO (centres undefined) the Potency was inconclusive: 10.4 µM [inhibitor, single point].
For O=C(O)c1ccc(/C=C/c2nc3ccccc3c(=O)n2-c2ccc(Br)cc2)cc1, the Potency was active: 13.1 µM.
With O=C(COC(=O)c1ccccc1Cl)NC1CCCCCCC1 the Potency was “inactive”.
With CN1C(=O)CC(C(=O)O)SC1=Nc1cc(Cl)cc(Cl)c1 (centres undefined) the Potency was inconclusive: 14.7 µM [inhibitor, partial curve, poor fit].
For C[C@H](NC(=O)C1CCN(S(=O)(=O)c2ccccc2)CC1)C(=O)NCc1cccc(Cl)c1, the Potency was inconclusive: 18.5 µM [inhibitor, single point].
For Cc1ccc(NC(=O)CSc2ncc(-c3ccccc3)n2C(=O)c2ccccc2)cc1, the Potency was inconclusive: 20.8 µM [inhibitor, partial curve, poor fit].
With O=C(COc1ccc(F)cc1)N1CCCCCCC1 the Potency was inconclusive: 14.7 µM [inhibitor, single point].
In the case of Cc1ccc(Nc2cc(-n3nc(C)cc3C)ncn2)c(C)c1, the Potency is reported as “inactive”.
With O=C(O)/C=C/C(=O)NCc1cn(-c2ccccc2)nc1-c1cccc(Br)c1 the Potency was inconclusive: 18.5 µM [inhibitor, single point].
With O=C(Oc1cccc(NC2=NS(=O)(=O)c3ccccc32)c1)c1cccnc1 the Potency was inconclusive: 7.38 µM [inhibitor, partial curve].
With CCOc1cc2c(cc1OCC)-n1cccc1C(c1ccc(OC(F)F)cc1)NC2 (centres undefined) the Potency was “inactive”.
In the case of COc1ccc(-c2cc3c(=O)n(CC(=O)NCCN4CCCC4)nc(C)n3n2)cc1, the Potency is reported as inconclusive: 13.1 µM [inhibitor, partial curve].
In the case of COc1cc(/C=N/NC(=O)Cc2ccccc2)cc(OC)c1OC, the Potency is reported as inconclusive: 11.7 µM [inhibitor, single point].
With Cc1ccc(/C=C/C(=O)c2ccccc(=O)c2O)cc1C the Potency was active: 9.28 µM.
For CC(=O)c1ccc(NC(=O)N[C@@H](Cc2ccccc2)C(=O)O)cc1, the Potency was inconclusive: 9.28 µM [inhibitor, partial curve, poor fit].
With O=C(NC1CCCCC1)C(c1cc2c(cc1[N+](=O)[O-])OCO2)N1CCCCC1 (centres undefined) the Potency was active: 13.1 µM.
In the case of CC(C)(C)OC(=O)NCCCCCNC(=O)c1nc[nH]c1C(=O)N1CCN(C(=O)OC(C)(C)C)CC1, the Potency is reported as inconclusive: 10.4 µM [inhibitor, single point].
For O=C(O)Cn1c(-c2ccccn2)nc2ccccc21, the Potency was “inactive”.
With COc1ccc(C2=NOC(Cn3nc(C(=O)NCc4ccc(C)cc4)cc3-c3ccccc3)C2)cc1 (centres undefined) the Potency was active: 10.4 µM.
With COc1cc2c(c(OC)c1OC)-c1c(cc(OC)c(OC)c1OC)C[C@H](C)[C@H](C)C2 the Potency was inconclusive: 13.1 µM [inhibitor, partial curve, poor fit].
For O=S(=O)(N/N=C\c1ccccc1O)c1ccc(Cl)cc1, the Potency was inconclusive: 18.5 µM [inhibitor, single point].
For CCCCNC(=O)c1c(N)n(/N=C/c2ccccn2)c2nc3ccccc3nc12, the Potency was active: 1.47 µM.
Potency is read from the fitted curve at half-maximal effect.
